# Laboratory results reported in article PMC9561375.
# The chains behind the UniProt entries cited, without tags or fusion partners.
# UniProt P07814: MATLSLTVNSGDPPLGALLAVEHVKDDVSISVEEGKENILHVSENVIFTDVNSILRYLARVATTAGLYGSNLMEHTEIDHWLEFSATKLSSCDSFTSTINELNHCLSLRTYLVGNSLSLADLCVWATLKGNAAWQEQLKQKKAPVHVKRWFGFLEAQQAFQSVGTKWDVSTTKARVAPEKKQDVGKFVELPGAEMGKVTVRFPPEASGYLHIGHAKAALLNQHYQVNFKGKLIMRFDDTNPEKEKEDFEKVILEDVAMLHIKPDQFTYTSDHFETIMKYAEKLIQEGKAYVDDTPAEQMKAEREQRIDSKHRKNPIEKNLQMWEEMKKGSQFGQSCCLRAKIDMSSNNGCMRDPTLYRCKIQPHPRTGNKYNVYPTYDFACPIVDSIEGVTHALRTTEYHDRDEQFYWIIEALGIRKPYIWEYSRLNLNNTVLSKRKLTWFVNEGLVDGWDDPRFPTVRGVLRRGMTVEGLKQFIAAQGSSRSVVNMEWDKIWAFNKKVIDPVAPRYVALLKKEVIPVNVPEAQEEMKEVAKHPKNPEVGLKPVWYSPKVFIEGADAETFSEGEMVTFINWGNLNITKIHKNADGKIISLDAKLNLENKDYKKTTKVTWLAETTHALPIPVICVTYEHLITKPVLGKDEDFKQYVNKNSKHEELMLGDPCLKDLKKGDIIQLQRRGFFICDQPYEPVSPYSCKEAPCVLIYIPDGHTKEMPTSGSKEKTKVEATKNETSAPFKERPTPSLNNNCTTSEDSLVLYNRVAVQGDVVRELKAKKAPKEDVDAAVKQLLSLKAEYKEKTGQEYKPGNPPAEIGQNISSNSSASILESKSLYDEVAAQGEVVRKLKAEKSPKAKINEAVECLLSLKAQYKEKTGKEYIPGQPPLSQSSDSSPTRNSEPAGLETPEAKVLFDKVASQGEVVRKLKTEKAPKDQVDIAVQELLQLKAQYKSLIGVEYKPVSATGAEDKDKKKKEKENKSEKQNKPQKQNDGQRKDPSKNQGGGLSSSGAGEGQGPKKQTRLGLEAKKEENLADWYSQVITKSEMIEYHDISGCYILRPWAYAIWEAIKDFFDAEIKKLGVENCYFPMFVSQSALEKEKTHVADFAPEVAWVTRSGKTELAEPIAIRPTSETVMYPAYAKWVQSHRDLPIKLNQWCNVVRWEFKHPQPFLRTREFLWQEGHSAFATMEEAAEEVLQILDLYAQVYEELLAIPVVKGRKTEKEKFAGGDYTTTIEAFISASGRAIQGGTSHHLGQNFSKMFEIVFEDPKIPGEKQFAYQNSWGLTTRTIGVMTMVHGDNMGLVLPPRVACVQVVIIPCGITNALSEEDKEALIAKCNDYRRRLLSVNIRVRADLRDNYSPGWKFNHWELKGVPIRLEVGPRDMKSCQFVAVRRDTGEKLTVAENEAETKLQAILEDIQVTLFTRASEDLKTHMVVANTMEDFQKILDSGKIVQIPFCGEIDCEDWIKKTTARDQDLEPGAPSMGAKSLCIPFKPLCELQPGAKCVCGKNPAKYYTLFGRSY
# UniProt Q15021: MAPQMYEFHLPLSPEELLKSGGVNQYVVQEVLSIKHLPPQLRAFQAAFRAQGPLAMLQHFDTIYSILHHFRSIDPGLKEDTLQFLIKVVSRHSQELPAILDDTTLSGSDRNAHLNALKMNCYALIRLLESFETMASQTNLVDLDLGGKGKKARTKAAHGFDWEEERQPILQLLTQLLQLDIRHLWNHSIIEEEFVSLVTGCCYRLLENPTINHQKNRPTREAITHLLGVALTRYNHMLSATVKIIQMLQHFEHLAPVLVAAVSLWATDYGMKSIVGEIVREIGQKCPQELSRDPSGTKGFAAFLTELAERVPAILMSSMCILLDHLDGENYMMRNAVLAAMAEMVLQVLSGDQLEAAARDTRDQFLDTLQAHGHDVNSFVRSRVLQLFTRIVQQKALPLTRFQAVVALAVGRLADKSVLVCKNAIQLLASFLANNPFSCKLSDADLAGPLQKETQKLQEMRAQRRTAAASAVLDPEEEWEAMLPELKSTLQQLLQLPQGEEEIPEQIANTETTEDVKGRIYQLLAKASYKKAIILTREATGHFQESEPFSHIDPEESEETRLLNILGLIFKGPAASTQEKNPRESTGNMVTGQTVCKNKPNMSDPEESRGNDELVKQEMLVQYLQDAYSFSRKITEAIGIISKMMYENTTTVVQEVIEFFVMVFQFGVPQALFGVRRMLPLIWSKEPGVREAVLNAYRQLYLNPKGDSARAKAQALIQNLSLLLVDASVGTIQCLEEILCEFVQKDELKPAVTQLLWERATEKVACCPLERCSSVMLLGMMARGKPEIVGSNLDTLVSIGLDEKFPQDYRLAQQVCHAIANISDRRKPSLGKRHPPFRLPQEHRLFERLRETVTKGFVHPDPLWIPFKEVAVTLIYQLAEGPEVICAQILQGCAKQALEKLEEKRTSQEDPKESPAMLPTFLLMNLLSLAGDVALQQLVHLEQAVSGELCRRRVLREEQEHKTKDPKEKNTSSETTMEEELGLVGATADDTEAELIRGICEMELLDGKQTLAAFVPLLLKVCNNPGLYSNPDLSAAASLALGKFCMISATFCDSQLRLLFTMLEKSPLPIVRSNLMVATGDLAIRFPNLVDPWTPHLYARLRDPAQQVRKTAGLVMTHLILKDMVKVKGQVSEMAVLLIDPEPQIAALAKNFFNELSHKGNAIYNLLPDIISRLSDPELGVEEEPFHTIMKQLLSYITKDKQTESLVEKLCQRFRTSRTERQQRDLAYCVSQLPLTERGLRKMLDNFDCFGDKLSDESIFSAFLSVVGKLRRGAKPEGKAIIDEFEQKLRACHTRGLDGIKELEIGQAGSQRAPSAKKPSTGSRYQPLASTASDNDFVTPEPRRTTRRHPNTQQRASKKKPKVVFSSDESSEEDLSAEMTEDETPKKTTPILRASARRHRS
# Results are given in words; binding and its absence hold for the method and conditions named. In cells and extracts the contact can be indirect. Some binding calls cover weakened binding; strength is not graded here.
# T1: NCAPD3 (human (endogenous in HT-29 and RPE-1)) (UniProt P42695)
# T1 sequence: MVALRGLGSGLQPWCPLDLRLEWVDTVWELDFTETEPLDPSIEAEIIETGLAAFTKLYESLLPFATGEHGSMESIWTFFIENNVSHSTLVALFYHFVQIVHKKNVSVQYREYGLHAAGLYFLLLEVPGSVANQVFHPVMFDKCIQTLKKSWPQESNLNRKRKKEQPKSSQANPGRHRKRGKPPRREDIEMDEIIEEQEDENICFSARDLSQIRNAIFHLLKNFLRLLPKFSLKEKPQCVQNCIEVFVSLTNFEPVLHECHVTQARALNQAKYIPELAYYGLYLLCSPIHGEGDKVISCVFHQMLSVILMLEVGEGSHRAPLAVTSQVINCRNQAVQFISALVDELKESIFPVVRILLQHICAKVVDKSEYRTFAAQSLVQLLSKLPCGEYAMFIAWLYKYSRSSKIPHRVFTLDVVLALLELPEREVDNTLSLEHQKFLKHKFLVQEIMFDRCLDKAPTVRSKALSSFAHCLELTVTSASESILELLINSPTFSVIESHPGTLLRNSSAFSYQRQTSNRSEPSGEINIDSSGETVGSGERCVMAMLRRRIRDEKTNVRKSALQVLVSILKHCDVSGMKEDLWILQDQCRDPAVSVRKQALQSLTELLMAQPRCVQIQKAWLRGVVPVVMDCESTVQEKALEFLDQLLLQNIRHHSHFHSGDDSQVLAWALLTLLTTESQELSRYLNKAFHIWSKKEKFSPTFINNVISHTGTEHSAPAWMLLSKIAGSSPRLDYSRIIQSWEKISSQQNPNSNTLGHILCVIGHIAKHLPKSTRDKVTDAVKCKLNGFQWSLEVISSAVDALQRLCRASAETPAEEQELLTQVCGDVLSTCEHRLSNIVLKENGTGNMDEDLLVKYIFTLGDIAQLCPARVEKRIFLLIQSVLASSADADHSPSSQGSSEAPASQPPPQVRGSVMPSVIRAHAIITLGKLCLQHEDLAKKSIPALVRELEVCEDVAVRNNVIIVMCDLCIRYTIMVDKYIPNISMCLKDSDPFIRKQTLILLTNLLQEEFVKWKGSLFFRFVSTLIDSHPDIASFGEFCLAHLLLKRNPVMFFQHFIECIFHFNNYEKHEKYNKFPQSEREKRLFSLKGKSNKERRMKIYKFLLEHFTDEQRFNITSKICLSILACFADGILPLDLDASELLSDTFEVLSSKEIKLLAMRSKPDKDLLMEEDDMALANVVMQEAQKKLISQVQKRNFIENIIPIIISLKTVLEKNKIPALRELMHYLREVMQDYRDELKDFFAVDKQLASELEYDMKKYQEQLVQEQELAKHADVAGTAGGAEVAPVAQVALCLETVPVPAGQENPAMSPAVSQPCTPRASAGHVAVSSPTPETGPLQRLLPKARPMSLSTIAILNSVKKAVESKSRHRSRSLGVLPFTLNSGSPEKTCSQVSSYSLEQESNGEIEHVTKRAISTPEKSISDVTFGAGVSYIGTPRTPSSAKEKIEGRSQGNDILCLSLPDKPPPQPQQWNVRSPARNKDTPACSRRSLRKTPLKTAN
# T2: NCAPG2 (human (endogenous in HT-29)) (UniProt Q86XI2)
# T2 sequence: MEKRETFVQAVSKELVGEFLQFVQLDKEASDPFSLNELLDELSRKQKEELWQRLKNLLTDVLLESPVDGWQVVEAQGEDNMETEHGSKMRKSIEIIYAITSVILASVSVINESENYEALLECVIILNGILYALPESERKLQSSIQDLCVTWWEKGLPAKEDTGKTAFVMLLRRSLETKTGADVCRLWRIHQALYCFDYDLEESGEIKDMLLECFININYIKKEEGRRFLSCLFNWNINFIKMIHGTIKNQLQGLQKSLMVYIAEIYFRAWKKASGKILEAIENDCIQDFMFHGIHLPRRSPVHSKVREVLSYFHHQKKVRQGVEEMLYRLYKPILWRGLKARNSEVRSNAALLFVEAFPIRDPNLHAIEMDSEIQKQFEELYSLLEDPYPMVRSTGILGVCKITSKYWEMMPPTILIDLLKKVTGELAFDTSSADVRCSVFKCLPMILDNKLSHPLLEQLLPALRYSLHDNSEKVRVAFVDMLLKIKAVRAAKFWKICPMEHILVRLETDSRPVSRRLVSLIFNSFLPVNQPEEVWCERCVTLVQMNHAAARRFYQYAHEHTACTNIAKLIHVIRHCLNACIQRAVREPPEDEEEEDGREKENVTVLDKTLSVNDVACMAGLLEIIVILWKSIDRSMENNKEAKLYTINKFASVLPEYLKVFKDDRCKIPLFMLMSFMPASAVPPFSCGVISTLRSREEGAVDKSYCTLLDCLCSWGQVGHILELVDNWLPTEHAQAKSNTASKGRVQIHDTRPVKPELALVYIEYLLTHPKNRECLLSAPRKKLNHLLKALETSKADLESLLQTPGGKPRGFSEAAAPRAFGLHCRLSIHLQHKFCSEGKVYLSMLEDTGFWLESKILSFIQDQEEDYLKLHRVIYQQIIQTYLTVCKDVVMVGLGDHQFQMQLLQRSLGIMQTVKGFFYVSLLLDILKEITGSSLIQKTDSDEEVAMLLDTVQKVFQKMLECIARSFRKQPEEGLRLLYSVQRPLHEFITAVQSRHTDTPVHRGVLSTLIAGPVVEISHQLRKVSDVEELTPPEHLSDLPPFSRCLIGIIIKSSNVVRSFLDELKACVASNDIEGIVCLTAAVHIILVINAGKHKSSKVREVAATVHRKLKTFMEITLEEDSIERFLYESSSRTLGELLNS
# How the values were obtained:
# [1] = molecular target: T1, NCAPD3 (human (endogenous in HT-29 and RPE-1)); assay: co-IP; endogenous proteins in lysates of RPE-1 cells transfected with the pJM101/L1.3 expression vector, immunoblot; antibody only (no lysate) and IgG IPs as controls
# [2] = molecular target: EPRS (human (endogenous in HT-29)) (UniProt P07814); assay: co-IP; endogenous proteins in HT-29 whole cell lysates, immunoblot; antibody only (no lysate) and IgG IPs as negative controls; for NCAPD3 with EPRS, cells induced to express NT shRNA or NCAPD2 shRNA; done as described previously (ref. 31)
# [3] = molecular target: T2, NCAPG2 (human (endogenous in HT-29)); assay: as above
# [4] = molecular target: T1, NCAPD3 (human (endogenous in HT-29 and RPE-1)); assay: as above
# [5] = molecular target: T1, NCAPD3 (human (endogenous in HT-29 and RPE-1)); assay: proximity ligation; DuoLink PLA on fixed, permeabilised HT-29 cells with NCAPD3 (rabbit) and NCAPD2 (mouse) antibodies; nuclear and cytoplasmic foci per cell counted; cells transfected with siCTRL or siL1, treated with DMSO or 50 uM Didanosine and Zidovudine, or transfected with pCEP4, pJM101/L1.3 or pJM101/L1.3 3'UTR deletion
# [6] = molecular target: T1, NCAPD3 (human (endogenous in HT-29 and RPE-1)); assay: condition: only RPE-1 cells transfected with the pCEP4 empty vector (no L1 expression vector); co-IP; endogenous proteins in lysates of RPE-1 cells transfected with the pCEP4 empty vector, immunoblot; antibody only (no lysate) and IgG IPs as controls
# [7] = molecular target: NCAPD2 (human (endogenous in HT-29 and RPE-1)) (UniProt Q15021); assay: co-IP; endogenous proteins in HT-29 whole cell lysates, immunoblot; antibody only (no lysate) and IgG IPs as negative controls; for NCAPD3 with EPRS, cells induced to express NT shRNA or NCAPD2 shRNA; done as described previously (ref. 31)
binding [1],binding [2],binding [3],binding [4],binding [5],binding [6],binding [7],Molecule
binds,binds,binds,binds,binds,no binding,,NCAPD2 (from UniProt Q15021 1-1401)
,binds,,,,,binds,"NCAPD3 (protein, UniProt P42695 1-1498) MVALRGLGSGLQPWCPLDLRLEWVDTVWELDFTETEPLDPSIEAEIIETGLAAFTKLYESLLPFATGEHGSMESIWTFFIENNVSHSTLVALFYHFVQIVHKKNVSVQYREYGLHAAGLYFLLLEVPGSVANQVFHPVMFDKCIQTLKKSWPQESNLNRKRKKEQPKSSQANPGRHRKRGKPPRREDIEMDEIIEEQEDENICFSARDLSQIRNAIFHLLKNFLRLLPKFSLKEKPQCVQNCIEVFVSLTNFEPVLHECHVTQARALNQAKYIPELAYYGLYLLCSPIHGEGDKVISCVFHQMLSVILMLEVGEGSHRAPLAVTSQVINCRNQAVQFISALVDELKESIFPVVRILLQHICAKVVDKSEYRTFAAQSLVQLLSKLPCGEYAMFIAWLYKYSRSSKIPHRVFTLDVVLALLELPEREVDNTLSLEHQKFLKHKFLVQEIMFDRCLDKAPTVRSKALSSFAHCLELTVTSASESILELLINSPTFSVIESHPGTLLRNSSAFSYQRQTSNRSEPSGEINIDSSGETVGSGERCVMAMLRRRIRDEKTNVRKSALQVLVSILKHCDVSGMKEDLWILQDQCRDPAVSVRKQALQSLTELLMAQPRCVQIQKAWLRGVVPVVMDCESTVQEKALEFLDQLLLQNIRHHSHFHSGDDSQVLAWALLTLLTTESQELSRYLNKAFHIWSKKEKFSPTFINNVISHTGTEHSAPAWMLLSKIAGSSPRLDYSRIIQSWEKISSQQNPNSNTLGHILCVIGHIAKHLPKSTRDKVTDAVKCKLNGFQWSLEVISSAVDALQRLCRASAETPAEEQELLTQVCGDVLSTCEHRLSNIVLKENGTGNMDEDLLVKYIFTLGDIAQLCPARVEKRIFLLIQSVLASSADADHSPSSQGSSEAPASQPPPQVRGSVMPSVIRAHAIITLGKLCLQHEDLAKKSIPALVRELEVCEDVAVRNNVIIVMCDLCIRYTIMVDKYIPNISMCLKDSDPFIRKQTLILLTNLLQEEFVKWKGSLFFRFVSTLIDSHPDIASFGEFCLAHLLLKRNPVMFFQHFIECIFHFNNYEKHEKYNKFPQSEREKRLFSLKGKSNKERRMKIYKFLLEHFTDEQRFNITSKICLSILACFADGILPLDLDASELLSDTFEVLSSKEIKLLAMRSKPDKDLLMEEDDMALANVVMQEAQKKLISQVQKRNFIENIIPIIISLKTVLEKNKIPALRELMHYLREVMQDYRDELKDFFAVDKQLASELEYDMKKYQEQLVQEQELAKHADVAGTAGGAEVAPVAQVALCLETVPVPAGQENPAMSPAVSQPCTPRASAGHVAVSSPTPETGPLQRLLPKARPMSLSTIAILNSVKKAVESKSRHRSRSLGVLPFTLNSGSPEKTCSQVSSYSLEQESNGEIEHVTKRAISTPEKSISDVTFGAGVSYIGTPRTPSSAKEKIEGRSQGNDILCLSLPDKPPPQPQQWNVRSPARNKDTPACSRRSLRKTPLKTAN"
